In one data set the test system is Caco-2 cell monolayers. Put plainly: in vitro. It counts as in vitro ADME, human. The note with it: Caco-2 monolayers, 1% HPβCD, 2 h.
Another data set in a line: in vitro. The note with it: human, Caco-2. The data set is classed as in vitro ADME, human.

Structures are written as SMILES. Values joined by “and” are separate entries in the source; they are usually repeats but may differ in a detail not shown here. Equal values may be shown once.

`CC(C)NCC(O)COc1ccc(CC(N)=O)cc1` (stereo not shown) [Atenolol, atenolol, reference compound]: in the data set with Caco-2 cell monolayers, the “% Transport Absorptive direction (A–B)” value was 2.8% and 1.3 ± 0.1%. Moreover, the “% Transport Secretory direction (A–B)” value in the data set with Caco-2 cell monolayers (secretory direction) is 1.4% and 1.4 ± 0.4%. Further, in the data set “in vitro”, the Papp A→B at 2 h was found to be 2.3 ± 0.5 ×10⁻⁶ cm/s and the efflux ratio at 120 min amounted to 1.2.

As a reminder, the Papp A→B is how fast a substance crosses the layer from the apical side. A word on the efflux ratio: it is a quotient of directional permeabilities that is used to spot active efflux.

The record behind these values is article PMC5592720 (Planta medica, 2013).
